In PubChem BioAssay AID1794845 (National Center for Advancing Translational Sciences (NCATS), 2023):
The whole screen tested about 6,900 compounds, of which fewer than 10 were called active. The call rests on the fitted dose curve; in most records, active means well fitted curve in the direction sought with a large enough effect; inconclusive means small, poorly fitted or top-dose-only effect, or another doubt; inactive means no such curve, though single readings can be large or run the other way. The list shows a part of the results.

The chains behind the UniProt entries cited, without tags or fusion partners. Where a name states a change or a piece, a line headed by the entry shows the natural chain unless it says otherwise.
UniProt C7C422: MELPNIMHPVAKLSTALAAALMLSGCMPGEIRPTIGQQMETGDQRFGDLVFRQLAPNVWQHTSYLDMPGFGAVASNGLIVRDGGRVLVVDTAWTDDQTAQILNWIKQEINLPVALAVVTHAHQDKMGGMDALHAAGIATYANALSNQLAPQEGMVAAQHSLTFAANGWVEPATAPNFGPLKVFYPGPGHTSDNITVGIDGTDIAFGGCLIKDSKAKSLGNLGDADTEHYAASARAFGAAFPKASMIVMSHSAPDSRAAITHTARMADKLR

molecular target: Metallo-beta-lactamase type 2 (Klebsiella pneumoniae) (UniProt C7C422); assay: qHTS to identify inhibitors of the New Delhi Metallo-beta-lactamase (NDM): primary screen against the NCATS Gemini Collection; conditions: NDM-1 enzyme, meropenem hydrolysis, absorbance 300 nm; at 38.4 µM (top of the series) unless noted; further: % of control where 0% means no effect
Summary of the method: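 Meropenem hydrolysis (50 uM final) by 2 nM NDM-1 read as 300 nm absorbance after 30 min, following >30 min compound–enzyme preincubation in HEPES pH 7.0 with 1 uM ZnSO4 and 0.01% Tween20.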

Compound | activity % (negative = inhibition)
Cc1ccc(-n2nc(C)c([C@H]3C=C[C@@H](OC(=O)Nc4ccc(C(C)C)cc4)C3)c2C)cc1Cl | inactive: 1.71%
CN(C)S(=O)(=O)N1C[C@@H](Oc2cccnc2)C[C@H]1C(=O)N1CCOCC1 | inactive: 0.221%
Cc1cc(N2CCN(Cc3nnc(C4CC(N)C4)n3C)CC2)cc(C)n1 (stereo not drawn) | inactive: 3.51%
COc1ccccc1-c1nnc2ccc(C(=O)N3CCN(C(C)=O)CC3)cn12 | inactive: 75.9%
CCCS(=O)(=O)N1CC(Oc2ccccc2-c2noc(C)n2)C1 | inactive: -0.112%
CCCCN(C)C(=O)c1c(C)sc2ccn(CCC)c(=O)c12 | inactive: 54.6%
CN(C)C(=O)[C@]12CCCC[C@@H]1N(CCc1ccccc1)C(=O)CC2 | inactive: 34.5%
COc1cccc(N2CCN(C(=O)CCn3ccn4nc5c(c4c3=O)CCCC5)CC2)c1 | inactive: 2.68%
Cc1ccnn1CCC(=O)N1CCOC(Cc2ccc(F)cc2)C1 (stereo not drawn) | inactive: -1.6%
COc1ccccc1Nc1ncc2c(n1)CN(C(=O)c1ccnn1C)CCN2 | inactive: 63.5% [at 57.5 µM]
CCn1nccc1C(=O)N1CC[C@@H]2CN(Cc3ccccc3)[C@@H]2C1 | inactive: -1.31%
O=C(CCl)N1CCC2(CC1)CC(c1cccc(C(F)(F)F)c1)=NO2 | inactive: 1.2% [at 57.5 µM]
O=C(NCc1nnc2cc(-c3nc(C4CC4)no3)ccn12)c1nccc2ccccc12 | inactive: 51.9%
COC(=O)c1ccc2nc(CO[C@H]3CN(Cc4cccc(C#N)c4)C[C@H]3F)[nH]c2c1 | inactive: 5.97% [at 57.5 µM]
Cn1cnc(S(=O)(=O)N2CCCN(C(=O)c3nccn3C)CCNC(=O)CC2c2ccccc2)c1 (stereo not drawn) | inactive: -12%
NC(=O)COc1ccc(C(=O)N[C@@H]2CN(Cc3ccccn3)CCC[C@H]2O)cc1 | inactive: 70.4% [at 57.5 µM]
O=C(Cn1cc(C(F)(F)F)ccc1=O)N1CCC2(CCCNC2=O)C1 (stereo not drawn) | inactive: 69%
CC(C)N1C[C@@H]2OCC(=O)N(Cc3ccccc3)[C@@H]2C1 | inactive: 19.3% [at 77.1 µM]
O=C(CC1CCOCC1)Nc1ccc(N2CCOCC2)cc1 | inactive: -5.65%
Cc1noc(C)c1-c1cc(-c2ccc(CN(C)C)cc2)cn2cncc12 | inactive: 35.3% [at 57.5 µM]
CNC(=O)c1cc(C2CC2)nc2onc(C3CCCN(C(=O)c4ccccc4OC)C3)c12 (stereo not drawn) | inactive: -8.94%
CCNC(=O)Nc1ccc(OCC(=O)N2CCN(c3ccccn3)CC2)nc1 | inactive: 4.07%
CC(NC(=O)C1CCCN(c2cnc3nccnc3c2)C1)c1cccnc1 (stereo not drawn) | inactive: 22.9%

Part of the list above, with tabs.
Compound	activity % (negative = inhibition)
CCNC(=O)Nc1ccc(OCC(=O)N2CCN(c3ccccn3)CC2)nc1	inactive: 4.07%
CC(NC(=O)C1CCCN(c2cnc3nccnc3c2)C1)c1cccnc1 (stereo not drawn)	inactive: 22.9%
